Assay results published in patent US20110064740A1.
Where a chain is given by its changes, count along the chain named. No constants are given. Whether binding was seen depends on the method and setting. Some binding calls cover weakened binding; strength is not graded here.

Amino acid sequences for entries named in this document (tags omitted). Residues count along the entry.
UniProt P05067, residues 672-711: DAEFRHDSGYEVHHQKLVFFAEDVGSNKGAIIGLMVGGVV

B1: Humanised 2E7 variant H1L1 (antibody, human IgG1, kappa, V domains shown)
VH: EVQLVESGGGLVQPGGSLRLSCAASGFTFSDNGMAWVRQAPGKGLEWVSFISNLAYSIDYADTVTGRFTISRDNAKNSLYLQMNSLRAEDTAVYYCVSGTWFAYWGQGTLVTVSS
VL: DIVMTQSPLSLPVTPGEPASISCRVSQSLLHSNGYTYLHWYLQKPGQSPQLLIYKVSNRFSGVPDRFSGSGSGTDFTLKISRVEAEDVGVYYCSQTRHVPYTFGGGTKVEIKR
B2: Humanised 2E7 variant H3L1 (antibody, human IgG1, kappa, V domains shown)
VH: B1 VH with V48I
VL: B1 VL
B3: Humanised 2E7 variant H2L1 (antibody, human IgG1, kappa, V domains shown)
VH: B1 VH with A24V
VL: B1 VL

target: human Aβ peptide (length not stated) (human) (UniProt P05067); experiment: ELISA, supernatants of transiently transfected CHOK1 cells

binding | Binder
binds | B1
binds | B2
binds | B3
